Experimental data as given in patent publication US9914754B2 (Angiochem Inc., priority 2008, dated 2018).

Assay: general procedure: Fmoc solid-phase peptide synthesis; Pre-loaded Fmoc-Leu-Wang resin (0.48 mmol/g); Rink amide MBHA resin with Nle (0.40 mmol/g) for ANG-Cys-NH2; HBTU/NMM (TBTU or HCTU for some peptides)
Conditions: for final purity (method not given): HPLC
[1] = whole synthesis, scale of the general procedure 100 μmol

NT-AN2Cys-NH2
final HPLC purity (conjugation step): purity HPLC>95%
final purity (method not given) (conjugation step, run 1): purity>95%
final purity (method not given) (conjugation step, run 2): ≧95%

Ac-KRRPD-YIL-OH
final purity (method not given) [1]: ≧95%
final HPLC purity [1]: purity HPLC≧95%

pGlu-LysNT(8-13)
final purity (method not given) [1]: ≧95%

MHA-RRPYIL-OH
final HPLC purity [1]: purity HPLC ≧95%
